This is a selection; strong and weak results do not stand in their true shares. For part of these data: At the low end of the ranking the order means little.

One test deals with T1, FEV (UniProt Q99581).
T1 sequence: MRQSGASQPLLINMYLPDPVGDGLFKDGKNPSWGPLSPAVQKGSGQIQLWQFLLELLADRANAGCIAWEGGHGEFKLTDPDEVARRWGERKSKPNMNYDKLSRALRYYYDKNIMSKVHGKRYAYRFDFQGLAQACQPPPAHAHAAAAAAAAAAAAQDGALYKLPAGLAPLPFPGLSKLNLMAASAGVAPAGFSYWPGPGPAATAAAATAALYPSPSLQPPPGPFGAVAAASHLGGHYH
The experiment in a line: DAPPL (digital affinity profiling via proximity ligation, sequencing). The conditions noted are these: 10 mM Tris-HCl pH 7.5, 50 mM NaCl, 1 mM DTT, 4% glycerol, room temperature, 30 min; GST-TFs on glutathione beads, 16-mer random dsDNA library, 0.1% …; high values mean tight binding; double strand, one strand shown; scale: fold enrichment (6-mer frequency, TF over GST control).
Consider TTTTGC, for which the binding signal turned out to be 1.3.
Regarding CGACTA, the binding signal was found to be 1.31.
Take GCTCGC: the binding signal was found to be 1.42.
As for TAGCGG, the binding signal amounted to 1.12.
On the same count and under the same terms, next, GCCTCG: 1.25; AACTAA: 1.35.
Sequence TCTCAC gave a binding signal of 1.47.
Same read-out and setting: next, GCTTCG: 1.26; CTAGGT: 1.07.

In a further test the target is T2, ELF5 (UniProt Q9UKW6-2).
T2 sequence: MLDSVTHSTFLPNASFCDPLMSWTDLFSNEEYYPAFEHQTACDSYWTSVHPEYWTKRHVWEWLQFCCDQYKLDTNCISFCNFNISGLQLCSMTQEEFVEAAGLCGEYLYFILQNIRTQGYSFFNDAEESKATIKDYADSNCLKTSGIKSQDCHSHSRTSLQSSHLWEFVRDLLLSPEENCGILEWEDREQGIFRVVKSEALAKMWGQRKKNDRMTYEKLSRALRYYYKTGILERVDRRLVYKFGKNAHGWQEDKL
The test is described as above. The conditions noted are these: 10 mM Tris-HCl pH 7.5, 50 mM NaCl, 1 mM DTT, 4% glycerol, room temperature, 30 min; GST-TFs on glutathione beads, 16-mer random dsDNA library, 0.1% …; high values mean tight binding; double strand, one strand shown; scale: fold enrichment (6-mer frequency, TF over GST control).
GTATTT came in with a binding signal of 1.62.
Same read-out and setting: next, TACGTT: 1.27; TACATG: 1.16.
The same measure, in the same setting: next, TGTTAA: 1.13; TGCGAT: 1.11; TTTTGC: 1.27.
Sequence TAACCT gave a binding signal of 1.29.
For CTAAAC, the binding signal came out at 1.19.
On the same count and under the same terms, next, CGAAAA: 0.995; GAAATC: 1.58; TGACTT: 1.56.
Take CGACTA: the binding signal came out at 1.34.
TTTAGG: the binding signal turned out to be 0.984.
Same read-out and setting: next, GGCCTA: 1.13.
CTGAGC: the binding signal was found to be 0.908.
On the same count and under the same terms, next, ATCGTC: 1.07; GCTCGC: 1.31.
Sequence CCTCTA came in with a binding signal of 1.48.
Sequence AACCTC registered a binding signal of 1.17.
Same read-out and setting: the value for TAGCGG was 1.12; that for TTAAAA was 1.11.
The same measure, in the same setting: next, CCCAAT: 1.23.
The same measure, in the same setting: next, GCCTCG: 1.23.
ATTTCC: the binding signal is 6.17.
On the same count and under the same terms, next, CTAACG: 1.12; AAATTC: 1.4; AACTAA: 1.38.
Regarding TCTTGA, the binding signal was determined as 1.3.
In the case of ATGGGT, the binding signal worked out at 1.34.
With TCTCAC, the binding signal was found to be 1.37.
The same measure, in the same setting: next, ATCCAA: 1.11; ACCATA: 1.15.
As to CTGTTA, the binding signal came to 1.37.
The same measure, in the same setting: next, CTTGAT: 1.39; AACCTT: 1.33.
Same read-out and setting: next, CATACT: 1.27.
Still for that read-out and setting: the value for TGTTCT was 1.37.
For the sequence GCTTCG, the binding signal came to 1.3.
On the same count and under the same terms, next, CTAGGT: 1.01.

Source of the values: publication PMC7862700.
